Measured values published in PubChem BioAssay AID2685 (National Center for Advancing Translational Sciences (NCATS), 2010).
The campaign covered roughly 320,000 compounds. About 2,100 (0.66%) were called active. Calls come from the whole dose curve; as a rule, active = well fitted inhibition curve with a large enough effect in the signal ratio, with a control signal flat (not every such curve was filed as active); inconclusive = small, poorly fitted or top-dose-only effect, or effect the other way, or a change in a side signal; inactive = flat fitted curve, though single readings scatter; the % refers to the signal ratio. The inconclusive results got no clear call from the source. Where the call is inconclusive, the potency comes from a doubtful curve fit.

Experiment: qHTS Assay for Lipid Storage Modulators in Drosophila S3 Cells
Settings: BODIPY lipid droplet fluorescence, 18-24 h, cells fed with added oleic acid; lipid storage change, negative = inhibition: at 46.1 µM (top of the series) unless noted
Outline: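 Laser-scanning cytometry quantifies lipid droplet accumulation (500–530 nm total intensity; droplet/cell object ratio) in oleic acid-fed (400 uM added) Drosophila S3 cells treated with a concentration series. 20 uM Triacsin C defined 100% inhibition.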
% is set by controls: 0 for no effect and ±100 for the full control effect; potency is the fitted concentration of half-maximal effect.

Lipid storage change, negative = inhibition, inconclusive:
Cc1ccc(NC(=O)c2cncc(Br)c2)cc1S(=O)(=O)N(C)C 25.4%
COc1cccc(CN2CCC(n3nccc3NC(=O)CCCc3ccccc3)CC2)c1 6.57%
CC(/C=C1\SC(=S)N(CCC(=O)Nc2nc(C)cs2)C1=O)=C\c1ccccc1 20.7%
CC(=O)c1cccc(NC(=O)N2CCCC2C(=O)NC2CCCC2)c1 (stereo unspecified) -14.1%
CCCCn1c(N)c(N(CCC(C)C)C(=O)c2c(C)noc2C)c(=O)[nH]c1=O
COc1ccc(NC(=O)/C(C#N)=C/c2ccc[nH]2)c(OC)c1 -33.4%
O=C1CCCC2=C1C1(O)C(=O)c3ccccc3C1(O)O2 (stereo unspecified) 21.2%
Cc1nc(NCCCN2CCOCC2)c2oc3ccccc3c2n1 1.16%
CCOC(=O)C1CCN(C(=O)CN2C(=O)NC3(CCCCC3)C2=O)CC1 -10.2%
O=C1NC(=O)/C(=C/c2ccc(-c3cc(C(=O)O)ccc3Cl)o2)S1 4.6%
c1ccc(COc2ccc(OCCCN3CCCC3)cc2)cc1 3.83%
CCn1c(C)cs/c1=N\S(=O)(=O)c1ccccc1 34.6%
CCCCn1c(SCC(=O)N2CC(C)CC(C)C2)nc2cc(S(N)(=O)=O)ccc21 (stereo unspecified) 0.985%

Potency, inconclusive:
COC(=O)Cc1cc(=O)[nH]c(/N=C(\N)Nc2ccc(C)cc2)n1 1.64 µM [rising, partial curve]
COc1cccc(/C=N/NC(=O)CN(C)S(=O)(=O)c2ccccc2)c1OC 6.51 µM [activator, single point]
O=C(Cn1cnc2c(nnn2Cc2ccccc2)c1=O)Nc1ccc2c(c1)OCCO2 29.1 µM [falling, single point]
Cc1cccn2c(=O)c3cc(C(=O)NCc4cccnc4)c(=N)n(CC4CCCO4)c3nc12 (stereo unspecified) 0.0046 µM [falling, full curve, poor fit]
CC1(C)CC(=O)C=C(c2cccc(O)c2)C1=O 10.3 µM [activator, single point]
COc1ccc(C(=O)N2CCCCCC2)cc1S(=O)(=O)N1CCOCC1 3.66 µM [falling, full curve, poor fit]
COc1ccc(CC(=O)Nc2ccc3c(C)cc(=O)oc3c2)cc1OC 16.4 µM [activator, single point]
Cc1nc(SCC(N)=O)c([N+](=O)[O-])[nH]1 29.1 µM [activator, single point]

Arranged by formula weight (rising): 3 of the compounds above.
Potency, inconclusive:
CC1(C)CC(=O)C=C(c2cccc(O)c2)C1=O 10.3 µM [activator, single point]
COC(=O)Cc1cc(=O)[nH]c(/N=C(\N)Nc2ccc(C)cc2)n1 1.64 µM [rising, partial curve]
COc1ccc(C(=O)N2CCCCCC2)cc1S(=O)(=O)N1CCOCC1 3.66 µM [falling, full curve, poor fit]
